Measurements published in patent US20240067758A1.
Results are given in words; binding and its absence hold for the method and conditions named. Some binding calls cover weakened binding; strength is not graded here.

T1: Cynomolgus IL22 (cynomolgus) (UniProt G7PHZ7)
T1 sequence: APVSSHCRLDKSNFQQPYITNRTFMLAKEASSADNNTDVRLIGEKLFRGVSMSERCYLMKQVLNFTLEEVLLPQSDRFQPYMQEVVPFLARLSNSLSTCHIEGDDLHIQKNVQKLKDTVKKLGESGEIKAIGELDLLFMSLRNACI


Legend:
[1] = target: T1, Cynomolgus IL22 (cynomolgus); assay: recombinant cloned Fab, binding retest
Human IL22 (human) = Human IL22 (human) (UniProt Q9GZX6); assay: SPR Biacore T200
[2] = target: Cleaved IL22 (IL22 protein after TEV cleavage) (human) (UniProt Q9GZX6); assay: complex purified by size-exclusion chromatography and crystallised

| Binder | binding [1] | also measured |
| --- | --- | --- |
| Rabbit 11041 Fab (Fab, V domains shown) VH: QSVEESGGRLVTPGTPLTLTCTVSGFSLSSYAMIWVRQAPGEGLEWIGIIDIDGSTYYASWAKGRFTISRTSTTVDLKITSPTTGDTATYFCARDRFVGVDIFDPWGPGTLVTVSS VL: AVVLTQTASPVSAPVGGTVTIKCQASEDIYTNLAWYQQKPGQPPKLLIYWASTLASGVPSRFKGSGSGTEFTLTISDLECADAATYYCQACVYGNSADSRYTFGGGTEVVVK | binds |  |
| 11070 (Fab, V domains shown) VH: EVQLQESGPGLVQPSQTLSPTCTVSGFSLTSYSVHWVRQHSGKSLEWMGRMWSDGDTSYNSAFTSRLSITRDTSKSQVFLKMNSLQTEDTGTYYCARSLDFYYDTTLAFWGPGTTVTVSS VL: DIVMTQTPSNLAASPGESVSINCKASKTISKYLAWYQQKPGKANKLLIYSGSTLQSGTPSRFSGSGSSTDFTLTIRNLEPEDFGLYYCQQHNEYPLTFGSGTKLEIK | binds |  |
| 11041gL13gH14 Fab (as a part of a bispecific antibody) (bispecific antibody, V domains shown) VH: EVQLVESGGGLVQPGGSLRLSCAVSGFSLSSYAMIWVRQAPGKGLEWIGIIDIEGSTYYASWAKGRFTISRDNSKNTVYLQMNSLRAEDTAVYYCARDRFVGVDIFDPWGQGTLVTVSS VL: AVQLTQSPSSLSASVGDRVTITCQASEDIYTNLAWYQQKPGKAPKLLIYWASTLASGVPSRFSGSGSGTDFTLTISSLQPEDFATYYCQASVYGNAADSRYTFGGGTKVEIKR |  | binding (Human IL22 (human)): binds |
| 11041gL13gH14 Fab (Fab, V domains shown) VH: EVQLVESGGGLVQPGGSLRLSCAVSGFSLSSYAMIWVRQAPGKGLEWIGIIDIEGSTYYASWAKGRFTISRDNSKNTVYLQMNSLRAEDTAVYYCARDRFVGVDIFDPWGQGTLVTVSS VL: AVQLTQSPSSLSASVGDRVTITCQASEDIYTNLAWYQQKPGKAPKLLIYWASTLASGVPSRFSGSGSGTDFTLTISSLQPEDFATYYCQASVYGNAADSRYTFGGGTKVEIKR |  | binding [2]: binds |
